Test system: MOR+ CeA neurons
Experiment: In vivo fiber photometry, hot water hind paw stimulation
Set-up: species or system mouse
Conditions: mMORp-GCaMP6f mice, morphine i.p. 10 mg/kg 30 minutes prior to hot water hind paw stimulations

## CN1CC[C@]23c4c5ccc(O)c4O[C@H]2[C@@H](O)C=C[C@H]3[C@H]1C5.O=S(=O)(O)O [morphine, morphine sulfate]
  calcium mediated event AUC: 7.7

Source: US20260174790A1, “HUMAN AND MURINE OPRM1 PROMOTERS AND USES THEREOF” (The Trustees of the University of Pennsylvania, priority 2022, published 2026)
